Measured values published in patent US20040014026A1 (YISSUM RESEARCH DEVELOPMENT COMPANY OF THE HEBREW …, published 2004).
These are yes or no findings as the source states them, for the method shown. For some assays here: Binding seen in cells or lysates may run through a third protein. Some results given as binding are weak or reduced against the parent protein; the word gives no strength. One block for each molecule: values may come before it.

Chains of the proteins cited; added tags and fusions are not shown. Lines headed by an entry give the natural chain unless they say otherwise; changes in a name come on top. A line that says so, or that is headed by a name, gives the form on record, which may keep a tag or linker. Residues count along the entry.
198 amino acid N-terminal fragment of hnRNP-U (N-198), Flag tagged (Q00839, residues 1-198): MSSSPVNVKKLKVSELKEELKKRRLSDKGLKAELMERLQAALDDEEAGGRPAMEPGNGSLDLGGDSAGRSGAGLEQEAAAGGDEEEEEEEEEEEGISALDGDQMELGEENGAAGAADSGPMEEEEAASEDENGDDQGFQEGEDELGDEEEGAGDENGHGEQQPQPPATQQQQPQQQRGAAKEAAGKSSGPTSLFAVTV
400 aa N-terminal fragment of hnRNP-U (N), Flag tagged (Q00839, form named): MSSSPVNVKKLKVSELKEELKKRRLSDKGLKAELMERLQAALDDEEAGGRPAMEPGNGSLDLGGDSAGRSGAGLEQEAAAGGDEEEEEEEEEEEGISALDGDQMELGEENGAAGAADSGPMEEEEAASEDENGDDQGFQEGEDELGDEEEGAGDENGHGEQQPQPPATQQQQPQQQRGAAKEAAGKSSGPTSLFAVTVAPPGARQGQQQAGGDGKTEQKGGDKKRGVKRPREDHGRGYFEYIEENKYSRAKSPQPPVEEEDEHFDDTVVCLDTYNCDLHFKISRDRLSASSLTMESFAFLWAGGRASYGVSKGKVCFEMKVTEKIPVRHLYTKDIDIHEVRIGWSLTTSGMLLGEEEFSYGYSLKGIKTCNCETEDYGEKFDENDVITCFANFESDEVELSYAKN
Flag-hnRNP-U-mNLS (lysines 224 and 228 substituted by alanine) (Q00839, form named): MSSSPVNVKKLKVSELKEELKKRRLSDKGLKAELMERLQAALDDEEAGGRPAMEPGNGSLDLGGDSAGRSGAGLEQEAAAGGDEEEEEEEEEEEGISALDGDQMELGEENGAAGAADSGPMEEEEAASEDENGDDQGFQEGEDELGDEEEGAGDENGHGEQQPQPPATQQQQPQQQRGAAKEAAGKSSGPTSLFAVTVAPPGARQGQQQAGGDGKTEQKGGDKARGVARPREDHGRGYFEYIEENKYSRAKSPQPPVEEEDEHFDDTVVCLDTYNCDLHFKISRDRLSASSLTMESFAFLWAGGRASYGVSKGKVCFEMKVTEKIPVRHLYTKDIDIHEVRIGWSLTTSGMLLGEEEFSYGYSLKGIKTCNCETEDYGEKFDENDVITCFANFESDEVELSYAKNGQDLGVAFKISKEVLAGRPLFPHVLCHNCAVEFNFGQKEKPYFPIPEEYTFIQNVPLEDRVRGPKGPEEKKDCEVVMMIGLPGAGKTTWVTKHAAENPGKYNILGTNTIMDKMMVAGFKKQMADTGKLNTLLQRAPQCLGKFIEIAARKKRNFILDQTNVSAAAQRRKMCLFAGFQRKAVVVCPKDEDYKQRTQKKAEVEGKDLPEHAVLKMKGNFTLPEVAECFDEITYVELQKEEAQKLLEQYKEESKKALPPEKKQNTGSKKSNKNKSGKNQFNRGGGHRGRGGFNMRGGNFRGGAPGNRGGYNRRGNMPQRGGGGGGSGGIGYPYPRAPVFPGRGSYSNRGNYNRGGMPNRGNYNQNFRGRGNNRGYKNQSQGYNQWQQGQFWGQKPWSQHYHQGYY
Flag-tagged human hnRNP-U (Q00839, form named): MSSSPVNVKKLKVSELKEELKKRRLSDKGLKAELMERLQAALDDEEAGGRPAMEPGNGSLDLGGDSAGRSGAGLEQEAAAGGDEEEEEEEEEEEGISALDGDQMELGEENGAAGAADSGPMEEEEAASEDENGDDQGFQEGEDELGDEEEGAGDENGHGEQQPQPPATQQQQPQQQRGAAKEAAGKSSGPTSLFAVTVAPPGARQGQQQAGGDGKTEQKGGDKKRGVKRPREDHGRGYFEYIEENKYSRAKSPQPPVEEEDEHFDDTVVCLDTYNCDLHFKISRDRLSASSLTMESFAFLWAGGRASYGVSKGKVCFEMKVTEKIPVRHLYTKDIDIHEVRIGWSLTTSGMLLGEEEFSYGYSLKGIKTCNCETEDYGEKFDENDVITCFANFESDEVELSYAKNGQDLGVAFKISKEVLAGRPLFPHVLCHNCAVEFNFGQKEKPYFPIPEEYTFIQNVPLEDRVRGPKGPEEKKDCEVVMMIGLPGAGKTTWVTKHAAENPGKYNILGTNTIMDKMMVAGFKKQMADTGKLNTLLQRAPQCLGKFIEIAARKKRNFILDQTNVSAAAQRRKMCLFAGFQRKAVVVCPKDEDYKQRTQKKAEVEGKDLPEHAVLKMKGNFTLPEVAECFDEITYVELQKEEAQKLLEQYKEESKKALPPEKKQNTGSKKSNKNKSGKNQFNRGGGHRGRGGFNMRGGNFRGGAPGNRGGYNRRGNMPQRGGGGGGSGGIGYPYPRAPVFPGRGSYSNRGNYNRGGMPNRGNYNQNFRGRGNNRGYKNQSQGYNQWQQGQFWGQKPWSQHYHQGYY
hnRNP-U (endogenous protein of 293/293T cells) (Q00839, form named): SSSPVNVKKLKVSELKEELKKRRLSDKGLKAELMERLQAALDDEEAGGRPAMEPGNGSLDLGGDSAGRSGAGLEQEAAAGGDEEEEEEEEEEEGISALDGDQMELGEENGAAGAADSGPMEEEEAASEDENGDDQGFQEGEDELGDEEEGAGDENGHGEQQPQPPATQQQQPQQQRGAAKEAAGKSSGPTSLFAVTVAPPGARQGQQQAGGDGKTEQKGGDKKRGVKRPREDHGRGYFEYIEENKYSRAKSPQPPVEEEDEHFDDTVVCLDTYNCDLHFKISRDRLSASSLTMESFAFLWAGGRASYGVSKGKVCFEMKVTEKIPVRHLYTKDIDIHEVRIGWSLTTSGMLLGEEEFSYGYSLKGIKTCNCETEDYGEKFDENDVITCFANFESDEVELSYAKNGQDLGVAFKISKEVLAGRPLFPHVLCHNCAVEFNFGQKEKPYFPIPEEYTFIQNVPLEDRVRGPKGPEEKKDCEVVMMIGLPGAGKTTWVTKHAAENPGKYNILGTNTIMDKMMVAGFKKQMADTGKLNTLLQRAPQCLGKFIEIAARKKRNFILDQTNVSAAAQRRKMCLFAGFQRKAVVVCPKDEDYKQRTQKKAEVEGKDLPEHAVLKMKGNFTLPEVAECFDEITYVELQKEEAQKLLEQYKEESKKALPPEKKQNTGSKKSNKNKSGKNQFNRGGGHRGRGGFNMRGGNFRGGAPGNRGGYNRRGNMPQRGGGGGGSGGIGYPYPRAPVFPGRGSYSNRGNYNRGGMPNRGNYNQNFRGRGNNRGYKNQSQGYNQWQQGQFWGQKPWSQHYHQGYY
UniProt Q8VEK3: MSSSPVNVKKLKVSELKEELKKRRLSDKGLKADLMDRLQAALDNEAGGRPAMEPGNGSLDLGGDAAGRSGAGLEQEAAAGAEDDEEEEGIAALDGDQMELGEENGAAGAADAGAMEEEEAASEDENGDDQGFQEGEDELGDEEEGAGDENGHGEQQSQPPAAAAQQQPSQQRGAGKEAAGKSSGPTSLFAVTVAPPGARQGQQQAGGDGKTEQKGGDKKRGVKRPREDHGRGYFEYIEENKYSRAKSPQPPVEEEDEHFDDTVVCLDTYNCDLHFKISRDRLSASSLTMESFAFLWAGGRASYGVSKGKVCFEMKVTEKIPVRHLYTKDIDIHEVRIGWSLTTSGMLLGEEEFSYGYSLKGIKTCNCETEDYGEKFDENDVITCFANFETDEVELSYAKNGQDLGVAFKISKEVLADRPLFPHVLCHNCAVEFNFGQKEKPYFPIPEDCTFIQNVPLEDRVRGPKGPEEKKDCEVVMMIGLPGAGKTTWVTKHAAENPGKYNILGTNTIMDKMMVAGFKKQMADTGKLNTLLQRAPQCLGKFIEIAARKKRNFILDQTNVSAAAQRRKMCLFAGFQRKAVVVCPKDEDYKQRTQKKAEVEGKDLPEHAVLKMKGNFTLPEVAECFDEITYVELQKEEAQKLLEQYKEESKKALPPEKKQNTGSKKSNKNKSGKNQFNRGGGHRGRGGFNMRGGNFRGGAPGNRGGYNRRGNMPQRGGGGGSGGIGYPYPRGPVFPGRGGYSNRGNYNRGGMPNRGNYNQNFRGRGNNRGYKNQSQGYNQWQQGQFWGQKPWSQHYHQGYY
UniProt P63208: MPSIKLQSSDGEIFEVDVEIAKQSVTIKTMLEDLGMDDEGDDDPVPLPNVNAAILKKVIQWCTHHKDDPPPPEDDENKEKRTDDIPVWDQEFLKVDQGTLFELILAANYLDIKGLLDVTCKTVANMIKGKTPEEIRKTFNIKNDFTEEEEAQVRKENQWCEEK

Tests used:
[1] = target: HA-E3RS (human) (UniProt Q9Y297); assay: co-transfection with HA-E3RS in 293 cells, anti-Flag immunoprecipitation, Western blot
[2] = target: GFP-E3RS (UniProt Q9Y297); assay: interaction assay not described, data not shown
[3] = target: Flag-tagged human hnRNP-U (human) (UniProt Q00839); assay: co-transfection in 293T cells, anti-Flag immunoprecipitation, anti-HA Western blot
[4] = target: Flag-tagged mouse hnRNP-U (mouse) (UniProt Q8VEK3); assay: as above
[5] = target: Flag-tagged E3RS/βTrCP (Flag-E3RS) (UniProt Q9Y297); assay: co-expression in 293T cells, anti-Flag immunoprecipitation, Coomassie
[6] = target: hnRNP-U (endogenous protein of 293/293T cells) (UniProt Q00839); assay: anti-Flag immunopurification, Flag-peptide elution, Coomassie
[7] = target: hnRNP-U (endogenous protein of 293/293T cells) (UniProt Q00839); assay: co-immunoprecipitation with polyclonal anti-hnRNP-U serum, Western blot
[8] = target: hnRNP-U (endogenous protein of 293/293T cells) (UniProt Q00839); assay: anti-Flag immunoprecipitation after heat shock with co-expressed Myc-Skp1, Coomassie
[9] = target: hnRNP-U (endogenous protein of 293/293T cells) (UniProt Q00839); assay: anti-Flag immunoprecipitation from 293T cells, Western blot with monoclonal anti-hnRNP-U

Molecule: 400 aa N-terminal fragment of hnRNP-U (N), Flag tagged (from UniProt Q00839 1-405)
binding [1]: binds

Molecule: Flag-hnRNP-U-mNLS (lysines 224 and 228 substituted by alanine) (from UniProt Q00839 1-806)
binding [2]: binds

Molecule: Flag-tagged human hnRNP-U (from UniProt Q00839 1-806)
binding [1]: binds

Molecule: HA-E3RS (from UniProt Q9Y297 1-605)
binding [3]: binds
binding [4]: binds

B1: Flag-tagged E3RS/βTrCP (Flag-E3RS) (other, UniProt Q9Y297 1-605, looked up, not shown: small tags and cut ends)
chain: MDPAEAVLQEKALKFMCSMPRSLWLGCSSLADSMPSLRCLYNPGTGALTAFQNSSEREDCNNGEPPRKIIPEKNSLRQTYNSCARLCLNQETVCLASTAMKTENCVAKTKLANGTSSMIVPKQRKLSASYEKEKELCVKYFEQWSESDQVEFVEHLISQMCHYQHGHINSYLKPMLQRDFITALPARGLDHIAENILSYLDAKSLCAAELVCKEWYRVTSDGMLWKKLIERMVRTDSLWRGLAERRGWGQYLFKNKPPDGNAPPNSFYRALYPKIIQDIETIESNWRCGRHSLQRIHCRSETSKGVYCLQYDDQKIVSGLRDNTIKIWDKNTLECKRILTGHTGSVLCLQYDERVIITGSSDSTVRVWDVNTGEMLNTLIHHCEAVLHLRFNNGMMVTCSKDRSIAVWDMASPTDITLRRVLVGHRAAVNVVDFDDKYIVSASGDRTIKVWNTSTCEFVRTLNGHKRGIACLQYRDRLVVSGSSDNTIRLWDIECGACLRVLEGHEELVRCIRFDNKRIVSGAYDGKIKVWDLVAALDPRAPAGTLCLRTLVEHSGRVFRLQFDEFQIVSSSHDDTILIWDFLNDPAAQAEPPRSPSRTYTYISR
notes: F-box protein, receptor subunit of the IκB-E3; Immunopurified material may carry endogenous Skp1/Cul1; also called β-TrCP/E3RS; WT E3RS
binding [7]: binds
binding [8]: binds
binding [9]: binds

Now from value to molecule:

binding [1]: binds
Molecule: 198 amino acid N-terminal fragment of hnRNP-U (N-198), Flag tagged (from UniProt Q00839 1-198)

binding [5]: binds
Molecule: Myc-Skp1 (from UniProt P63208 1-163)

binding [6]: binds
Molecule: WDK1 (Flag-WD with Lys 304 mutated to Ala) (from UniProt Q9Y297 229-605)
